Values from PubChem BioAssay AID1259424 (University of Nebraska Medical Center, 2018)
Aim: 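Rank knockdowns across the genome by resemblance to the KSR1 depletion profile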 (primary screen). Cell system: human HCT116 colon cancer cells. Reagent: siRNA pool against human genes, 50 nM. Read-out: 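Six signature mRNAs by branched-DNA multiplex assay, scaled to two housekeeping genes and non-targeting median, log2; matched to mean KSR1 knockdown profile by Pearson correlation and euclidean distance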. Reading the numbers: mean correlation with KSR1 profile: higher = expression change more like KSR1 knockdown; mean distance from KSR1 profile: higher = expression change less like KSR1 knockdown.
Shown is one part, drawn at random, of about 14,000 reagents. 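Higher correlation or smaller distance means closer resemblance to KSR1 loss; control wells, including KSR1 knockdowns, recur on many plates.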 Reagents against one gene are numbered here. Not all columns of the deposit are shown. No sequences are given here. The record does not give: the time to read-out.

ERBB4 (GeneID 2066)
- mean correlation with KSR1 profile: 0.459
- mean distance from KSR1 profile: 2.75

VAMP3 (GeneID 9341)
- mean correlation with KSR1 profile: 0.0349
- mean distance from KSR1 profile: 1.55

NACA (GeneID 4666)
- mean correlation with KSR1 profile: 0.575
- mean distance from KSR1 profile: 0.808

ATP7A (GeneID 538)
- mean correlation with KSR1 profile: 0.243
- mean distance from KSR1 profile: 2.96

CAPN1 (GeneID 823)
- mean correlation with KSR1 profile: -0.00702
- mean distance from KSR1 profile: 2.18

SMPDL3A (GeneID 10924)
- mean correlation with KSR1 profile: 0.284
- mean distance from KSR1 profile: 1.51

HSFX1 (GeneID 100506164)
- mean correlation with KSR1 profile: -0.472
- mean distance from KSR1 profile: 2.85

KLHL18 (GeneID 23276)
- mean correlation with KSR1 profile: -0.402
- mean distance from KSR1 profile: 1.45

CIC (GeneID 23152)
- mean correlation with KSR1 profile: -0.653
- mean distance from KSR1 profile: 2.37

KIAA1210 (GeneID 57481)
- mean correlation with KSR1 profile: -0.497
- mean distance from KSR1 profile: 1.7

WIF1 (GeneID 11197)
- mean correlation with KSR1 profile: 0.187
- mean distance from KSR1 profile: 1.78

COL17A1 (GeneID 1308)
- mean correlation with KSR1 profile: -0.061
- mean distance from KSR1 profile: 3.04

UQCRH (GeneID 7388)
- mean correlation with KSR1 profile: 0.0914
- mean distance from KSR1 profile: 3.22

ITGA5 (GeneID 3678)
- mean correlation with KSR1 profile: -0.0879
- mean distance from KSR1 profile: 1.47

KYNU (GeneID 8942)
- mean correlation with KSR1 profile: 0.0185
- mean distance from KSR1 profile: 1.16

GLUD2 (GeneID 2747)
- mean correlation with KSR1 profile: -0.105
- mean distance from KSR1 profile: 2.29

MED31 (GeneID 51003)
- mean correlation with KSR1 profile: -0.625
- mean distance from KSR1 profile: 1.55

MSL3 (GeneID 10943)
- mean correlation with KSR1 profile: -0.64
- mean distance from KSR1 profile: 3.22

LPAR3 (GeneID 23566)
- mean correlation with KSR1 profile: 0.865
- mean distance from KSR1 profile: 1.5

APC2 (GeneID 10297)
- mean correlation with KSR1 profile: 0.0453
- mean distance from KSR1 profile: 3.1

MYL1 (GeneID 4632)
- mean correlation with KSR1 profile: -0.0166
- mean distance from KSR1 profile: 2.28

RAD54B (GeneID 25788) #1
- mean correlation with KSR1 profile: -0.0928
- mean distance from KSR1 profile: 2.84

RAD54B (GeneID 25788) #2
- mean correlation with KSR1 profile: 0.175
- mean distance from KSR1 profile: 1.39

PUS3 (GeneID 83480)
- mean correlation with KSR1 profile: 0.565
- mean distance from KSR1 profile: 1.75

FBXL3 (GeneID 26224)
- mean correlation with KSR1 profile: -0.256
- mean distance from KSR1 profile: 1.98

SDAD1 (GeneID 55153)
- mean correlation with KSR1 profile: -0.56
- mean distance from KSR1 profile: 3.25

FBXW9 (GeneID 84261)
- mean correlation with KSR1 profile: 0.652
- mean distance from KSR1 profile: 1.84

ALDH4A1 (GeneID 8659)
- mean correlation with KSR1 profile: 0.192
- mean distance from KSR1 profile: 1.63

Just “mean correlation with KSR1 profile” (2 entries from above):
LPAR3 (GeneID 23566): 0.865
APC2 (GeneID 10297): 0.0453
